Experimental data published in patent US20040014072A1, “Novel dna synthase” (published 2004).
Results are given in words; binding and its absence hold for the method and conditions named. In cells and extracts the contact can be indirect. Some binding calls cover weakened binding; strength is not graded here. Where a sequence is shown, tags or fusion partners need not be part of it.

Legend:
[1] = target: T1, p41 (Pyrococcus furiosus protein with DNA primase and DNA polymerase activity), produced with a six-histidine tag at the N-terminus (Pyrococcus furiosus) (UniProt Q9P9H1); test: co-elution from cation exchange column chromatography, gel of fractions (FIG. 4)
T1 sequence: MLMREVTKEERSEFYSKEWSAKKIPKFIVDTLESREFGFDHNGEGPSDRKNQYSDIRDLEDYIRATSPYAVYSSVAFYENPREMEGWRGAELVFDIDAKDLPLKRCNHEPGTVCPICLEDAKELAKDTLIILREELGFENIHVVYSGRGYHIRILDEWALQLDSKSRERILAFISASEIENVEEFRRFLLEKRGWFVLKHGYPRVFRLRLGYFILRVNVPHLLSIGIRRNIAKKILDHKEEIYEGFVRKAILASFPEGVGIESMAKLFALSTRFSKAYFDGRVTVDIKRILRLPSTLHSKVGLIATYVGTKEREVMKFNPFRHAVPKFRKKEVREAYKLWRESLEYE

[2] = target: T1, p41 (Pyrococcus furiosus protein with DNA primase and DNA polymerase activity), produced with a six-histidine tag at the N-terminus (Pyrococcus furiosus); test: co-elution from cation-exchange column (HiTrap SP); p46 alone passes through, p41 alone is retained

B1: p46 (Pyrococcus furiosus protein that forms a complex with p41) (protein)
chain: MLDPFSEKAKELLKEFGSMNEFLQAIPSLVDIEEVMNRLKFAKESEISEDILNIEDIRDLASFYAQIGALAYSPYGLELELVKKANLRIYTERIRRRRKIRSDEIGIEVKIAVEFPENDIKTLEKVYGGLPEYIVSLREFLDLVPDEKLSSYYVYDGNVYLRKDDLLKVWSKAFERNVEKAVNIIYEIRDELPEFYRRLAGEIRSFAEKEFSDKFREVQAGELKHHLFPPCVKNALRGVPQGMRNYAITVLLTSFLSYARICPNPPRRNVKIRDCIKDMRVITEEILPIIIEAGNRCSPPLFEDQPNEIKNIWYHLGFGYTANPTLEDSGNSTWYFPPNCDKIKANAPQLCTPDKHCRYIRNPLTYYLRRLYLEEKRRAKHADEGSDKGGKERILQ
For B1, the binding [1] was “binds” and the binding [2] was “binds”.
